# Assay results reported in the supplement of paper PMC8728848.
# Some of the results follow.
# What was measured:
# Test in all cases: glycan array binding signal (z-score within array); higher = stronger binding
# Settings in all cases: glycan notation: IUPAC condensed, linker removed
# [1] = target: Neu5Gc(a2-8)Neu5Gc(a2-3)Gal(b1-4)GlcNAc(b1-3)Gal(b1-4)GlcNAc
# In short: (§1)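 The binding signal is a Z-score computed within each array and averaged over linkers. Arrays of the same protein sequence at different concentrations or buffers were also averaged together. Data originate from 3228 arrays in the Consortium for Functional Glycomics database, kept only where the protein sequence was available.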
# [2] = target: Neu5Gc(a2-8)Neu5Gc(a2-6)Gal(b1-4)GlcNAc
# In short: as §1
# [3] = target: Neu5Gc(b2-6)Gal(b1-4)GlcNAc
# In short: as §1
binder,measurement,setting,value
"MtEccB1 (Mycobacterium tuberculosis H37Rv), O69734 (protein) MGLRLTTKVQVSGWRFLLRRLEHAIVRRDTRMFDDPLQFYSRSIALGIVVAVLILAGAALLAYFKPQGKLGGTSLFTDRATNQLYVLLSGQLHPVYNLTSARLVLGNPANPATVKSSELSKLPMGQTVGIPGAPYATPVSAGSTSIWTLCDTVARADSTSPVVQTAVIAMPLEIDASIDPLQSHEAVLVSYQGETWIVTTKGRHAIDLTDRALTSSMGIPVTARPTPISEGMFNALPDMGPWQLPPIPAAGAPNSLGLPDDLVIGSVFQIHTDKGPQYYVVLPDGIAQVNATTAAALRATQAHGLVAPPAMVPSLVVRIAERVYPSPLPDEPLKIVSRPQDPALCWSWQRSAGDQSPQSTVLSGRHLPISPSAMNMGIKQIHGTATVYLDGGKFVALQSPDPRYTESMYYIDPQGVRYGVPNAETAKSLGLSSPQNAPWEIVRLLVDGPVLSKDAALLEHDTLPADPSPRKVPAGASGAP",glycan array binding signal (z-score),[1],-1.2
same,glycan array binding signal (z-score),[2],-0.087
same,glycan array binding signal (z-score),[3],-0.779
